Results are given in words; binding and its absence hold for the method and conditions named. For some assays here: In cells and extracts the contact can be indirect. Some results given as binding are weak or reduced against the parent protein; the word gives no strength.
Columns and labels:
[1] = target: T1, COQ2 enzyme from the Q-biosynthesis pathway (mouse (endogenous in skeletal muscle, heart, C2C12 myoblasts and fibroblasts)) (UniProt Q66JT7); assay: native gel or EMSA; BN-PAGE of mitochondrial membrane proteins from wt mouse hearts and wt mouse fibroblasts cut into 26 bands, proteomics of each band (BN-DiS); codetection in band 13
T1 sequence: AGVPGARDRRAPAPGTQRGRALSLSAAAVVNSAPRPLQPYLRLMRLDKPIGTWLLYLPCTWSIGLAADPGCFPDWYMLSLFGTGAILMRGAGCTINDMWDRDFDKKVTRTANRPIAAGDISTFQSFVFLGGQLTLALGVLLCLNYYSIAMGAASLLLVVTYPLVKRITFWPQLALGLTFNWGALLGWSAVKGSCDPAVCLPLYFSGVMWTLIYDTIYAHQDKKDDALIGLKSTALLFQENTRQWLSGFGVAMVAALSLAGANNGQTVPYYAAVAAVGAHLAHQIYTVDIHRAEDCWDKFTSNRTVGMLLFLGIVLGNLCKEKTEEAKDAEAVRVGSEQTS

[2] = target: T2, QH2–Cyt c reductase core protein 2 (UQCRC2), subunit of complex III (mouse (endogenous in skeletal muscle, heart, brain, C2C12 myoblasts and fibroblasts)) (UniProt Q9DB77); assay: as above
T2 sequence: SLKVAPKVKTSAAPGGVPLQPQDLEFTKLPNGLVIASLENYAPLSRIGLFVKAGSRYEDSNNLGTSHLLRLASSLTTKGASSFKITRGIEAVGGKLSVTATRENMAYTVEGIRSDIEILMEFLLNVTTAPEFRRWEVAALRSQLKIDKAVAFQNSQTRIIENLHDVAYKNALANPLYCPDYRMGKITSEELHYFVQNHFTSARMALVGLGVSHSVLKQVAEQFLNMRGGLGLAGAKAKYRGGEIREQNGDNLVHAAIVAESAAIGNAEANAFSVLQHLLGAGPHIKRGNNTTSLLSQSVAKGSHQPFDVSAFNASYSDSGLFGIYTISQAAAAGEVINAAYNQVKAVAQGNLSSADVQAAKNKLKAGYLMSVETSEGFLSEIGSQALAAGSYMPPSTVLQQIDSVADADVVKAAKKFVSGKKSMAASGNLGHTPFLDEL

[3] = target: T1, COQ2 enzyme from the Q-biosynthesis pathway (mouse (endogenous in skeletal muscle, heart, C2C12 myoblasts and fibroblasts)); assay: co-IP; UQCRC2 or COQ2 immunocaptured from isolated mitochondria of mouse Skm, heart and brain solubilized with 1% n-dodecyl-β-D-maltoside; 1–3 mg protein with 12 μg antibody on Protein G affinity gel, 4 °C overnight; western blot
[4] = target: T2, QH2–Cyt c reductase core protein 2 (UQCRC2), subunit of complex III (mouse (endogenous in skeletal muscle, heart, brain, C2C12 myoblasts and fibroblasts)); assay: as above
[5] = target: T1, COQ2 enzyme from the Q-biosynthesis pathway (mouse (endogenous in skeletal muscle, heart, C2C12 myoblasts and fibroblasts)); assay: proximity ligation; Duolink In Situ PLA in C2C12 myoblasts (CRL and ETFDH-ko) grown on coverslips
[6] = target: T2, QH2–Cyt c reductase core protein 2 (UQCRC2), subunit of complex III (mouse (endogenous in skeletal muscle, heart, brain, C2C12 myoblasts and fibroblasts)); assay: as above
[7] = target: T1, COQ2 enzyme from the Q-biosynthesis pathway (mouse (endogenous in skeletal muscle, heart, C2C12 myoblasts and fibroblasts)); assay: native gel or EMSA; 1D BN-PAGE (digitonin-solubilized Skm mitochondrial membranes of wt mice, 3–12% Bis–Tris) followed by 2D SDS–PAGE and immunoblot; comigration
[8] = target: T2, QH2–Cyt c reductase core protein 2 (UQCRC2), subunit of complex III (mouse (endogenous in skeletal muscle, heart, brain, C2C12 myoblasts and fibroblasts)); assay: as above

Measured: binding

B1: electron-transfer flavoprotein dehydrogenase (ETFDH) (protein, UniProt Q921G7 33-616)
chain: SSTSAVPQITTHYTVHPREKDKRWEGVNMERFAEEADVVIVGAGPAGLSAAIRLKQLAAEQGKDIRVCLVEKAAQIGAHTLSGACLDPAAFKELFPDWKEKGAPLNTPVTEDRFAILTEKHRIPVPILPGLPMNNHGNYIVRLGHLVSWMGEQAEALGVEVYPGYAAAEVLYHEDGSVKGIATNDVGIQKDGAPKTTFERGLELHAKVTVFAEGCHGHLAKQLYKKFDLRASCDAQTYGIGLKELWIIDEKKWKPGRVDHTVGWPLDRHTYGGSFLYHLNEGEPLVAVGFVVGLDYQNPYLSPFREFQRWKHHPSIQPTLEGGKRIAYGARALNEGGLQSIPKLTFPGGLLIGCSPGFMNVPKIKGTHTAMKSGSLAAESIFKQLTSENLQSKTTGLHVTEYEDNLKQSWVWKELHAVRNIRPSCHGILGVYGGMIYTGIFYWILRGMEPWTLKHKGSDSDQLKPAKDCTPIEYPKPDGQISFDLLSSVALSGTNHEHDQPAHLTLKDDSIPVNRNLSIYDGPEQRFCPAGVYEFVPLEQGDGFRLQINAQNCVHCKTCDIKDPSQNINWVVPEGGGGPAYNGM
binds: all assays above
